Results published in PubChem BioAssay AID2685 (National Center for Advancing Translational Sciences (NCATS), 2010).
The list shows a part of the results. These are further read-outs of the screen, such as a control signal, another cell line or another target. No call is given for them. Compounds called inactive in the main read-out are mostly missing here. Potencies come from curve fits of mixed quality, noted in brackets.

Assay: qHTS Assay for Lipid Storage Modulators in Drosophila S3 Cells;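 on cell number change: cells counted by Cell Tracker Red CMTPX staining in the red channel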
Settings: BODIPY lipid droplet fluorescence, 18-24 h; for cell number change: measured here: cell count max response, cells fed with added oleic acid
Procedure, shortened: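 Drosophila S3 cells loaded with oleic acid (400 uM, as added) and compounds at several concentrations; lipid droplets imaged by 488-nm laser-scanning cytometry, 500–530 nm intensity and object ratio to cell channel. Percent activity normalized to 20 uM Triacsin C.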

[1] = measured here: cell number channel AC50, cells fed with added oleic acid
[2] = measured here: lipid fluorescence (Fed channel) AC50, cells fed with added oleic acid

O=C(Nc1ccc(Cl)c(C(F)(F)F)c1)NC1CC2CCCC(C1)N2Cc1ccccc1 (stereo not given)
cell number change: -70.8% | AC50 [1]: 29.1 µM [falling, single point] | AC50 [2]: 29.1 µM [falling, single point]

CCc1ccc(NC(=O)c2cccnc2)cc1
AC50 [1]: 0.731 µM [rising, single point]

CC1=C(C(=O)OCCC(C)C)C(c2ccc3c(c2)OCO3)NC(=O)N1 (stereo not given)
cell number change: -8.77% | AC50 [2]: 29.1 µM [falling, single point]

Cc1ccc(S(=O)(=O)N(C)C)cc1NC(=O)COC(=O)c1c(-c2ccccc2)noc1C
cell number change: 15.8%

O=C(Nc1nc(-c2cccs2)cs1)c1ccc([N+](=O)[O-])o1
AC50 [2]: 2.59 µM [falling, partial curve]

CC(C)CC(=O)Nc1ccc(C(=O)COC(=O)C2=COCCO2)cc1
AC50 [2]: 0.731 µM [falling, single point]

Cc1ccc2sc(NC(=O)CSc3nc(C)cc(C)c3C#N)nc2c1
cell number change: -68.4% | AC50 [1]: 23.1 µM [falling, partial curve] | AC50 [2]: 20.6 µM [falling, partial curve]

Cc1ccc(C(C(=O)NCCc2ccccc2)N(C(=O)c2csnn2)C2CC2)cc1 (stereo not given)
cell number change: 14.1%

c1ccc(CNc2nc(N3CCN(Cc4ccccc4)CC3)nc3ccccc23)cc1
cell number change: -16.8%

Cc1ccc(CN2CC34C=CC(O3)C(C(=O)NCc3ccc5c(c3)OCO5)C4C2=O)cc1 (stereo not given)
cell number change: 12.9% | AC50 [2]: 0.259 µM [rising, partial curve, poor fit]

O=C(CN1C(=O)NC2(CCCC2)C1=O)Nc1nc2ccccc2[nH]1
cell number change: -10.2% | AC50 [2]: 23.1 µM [falling, single point]

COc1cccc(CN(C)C(=O)CSCC(=O)Nc2cc(C)on2)c1OC
cell number change: -4.42%

Cc1noc(C)c1C(=O)Nc1cc(S(=O)(=O)N2CCCCC2)ccc1N(C)C
cell number change: 22.5%

Cc1occc1C(=O)Nc1sc2c(c1C(N)=O)CCC(C(C)(C)C)C2 (stereo not given)
cell number change: 31.2% | AC50 [1]: 0.92 µM [rising, full curve, poor fit]

O=[N+]([O-])c1ccc(P(=O)(Cc2ccccc2)c2ccccc2O)cc1 (stereo not given)
cell number change: -25.6% | AC50 [2]: 10.3 µM [falling, partial curve, poor fit]

O=c1oc2ccccc2c2oc3cc(O)c(O)cc3c12
cell number change: -6.51%

COc1cccc2c1OCC/C2=N\NC(=O)COc1ccc(C)cc1
cell number change: 23.6% | AC50 [2]: 29.1 µM [rising, single point]

CC(OC(=O)c1ccc(Cl)nc1)C(=O)NCc1ccc2c(c1)OCO2 (stereo not given)
cell number change: 24.8% | AC50 [2]: 0.82 µM [rising, full curve]

Cc1ccc2[nH]c(=O)c(CN(C)C(=O)c3ccccn3)cc2c1
cell number change: -0.718% | AC50 [1]: 0.92 µM [falling, full curve] | AC50 [2]: 6.51 µM [falling, single point]

CCCN(CCC)CCCNC(=O)Cn1cnc2sc(C)c(S(=O)(=O)N3CCCCC3)c2c1=O
cell number change: 12.2% | AC50 [2]: 29.1 µM [rising, single point]

Cc1ccc(/C(O)=C2\C(=O)C(=O)N(CCc3c[nH]c4ccccc34)C2c2cccnc2)cc1 (stereo not given)
cell number change: 48% | AC50 [1]: 11.6 µM [rising, single point]

COc1cccc(CNC(=O)COC(=O)c2c(C)nn(-c3ccccc3)c2Cl)c1
cell number change: 5.29% | AC50 [1]: 6.51 µM [rising, single point] | AC50 [2]: 32.6 µM [falling, partial curve, poor fit]

COc1ccc(C(=O)/C=C2\Sc3ccccc3N2C)cc1
cell number change: -10.5%

C/C(=N/NC(=O)CNC(=O)c1cccnc1)c1ccccc1
cell number change: -54.6% | AC50 [1]: 29.1 µM [falling, single point]

CC(C)(C)c1ccc(OCCC(=O)OCC(=O)NC2CCCCC2)cc1
cell number change: 0.368% | AC50 [1]: 0.206 µM [falling, full curve]

CC1(C(=O)NNC(=O)c2cccc([N+](=O)[O-])c2)CC1(Br)Br (stereo not given)
cell number change: -3.44% | AC50 [2]: 29.1 µM [rising, single point]

CN(C)S(=O)(=O)N1CCN(C(=O)N2CCCCCC2)CC1
cell number change: 15.9%

COc1ccccc1CNc1ccc2c(c1)CCC2
cell number change: -16.4% | AC50 [2]: 29.1 µM [falling, single point]

CCOC(=O)C(C)Sc1nnc(Cn2c(=O)sc3ccccc32)n1-c1ccccc1 (stereo not given)
cell number change: 14.3% | AC50 [2]: 0.0259 µM [rising, full curve, poor fit]

O=c1[nH]c(NCCO)nc2ncn(Cc3ccccc3)c12
cell number change: -46.9% | AC50 [1]: 0.206 µM [falling, full curve] | AC50 [2]: 1.16 µM [falling, full curve]

CCN(c1ccccc1)S(=O)(=O)c1ccc(OC)c(NC(=O)c2ccccc2OC)c1
cell number change: 41% | AC50 [1]: 11.6 µM [rising, partial curve, poor fit]

Cc1ccc([N+](=O)[O-])cc1S(=O)(=O)N1CCNCC1
cell number change: -33.9% | AC50 [2]: 6.51 µM [falling, single point]

O=C(Nc1nnc(C2COc3ccccc3O2)o1)c1ccc(F)cc1 (stereo not given)
cell number change: 2.87% | AC50 [2]: 23.1 µM [falling, single point]

O=C(Nc1cccnc1)Nc1ccccn1
cell number change: 17.8% | AC50 [2]: 0.291 µM [rising, full curve, poor fit]

CC(C)(C)OC(=O)N[C@H](C(=O)OC(C)(C)C)c1ccc(C(F)(F)F)cc1
cell number change: -20.8% | AC50 [1]: 0.146 µM [falling, full curve, poor fit] | AC50 [2]: 0.116 µM [falling, full curve, poor fit]

CSc1ccc(C(=O)C2CCCN(C(=O)c3nonc3C)C2)cc1 (stereo not given)
cell number change: -0.463%

Cc1cc(C)nc(N2CCCC(C(=O)NC(C)C)C2)n1 (stereo not given)
cell number change: 14% | AC50 [1]: 0.092 µM [falling, full curve, poor fit]

COc1cc(OC)nc(NC(C)=O)n1
cell number change: 42.6% | AC50 [1]: 29.1 µM [rising, single point] | AC50 [2]: 29.1 µM [rising, partial curve]

Cc1ccc(O)c(C(=O)c2cnc3c(c2)CN(CCC(C)C)C(=O)N3)c1
cell number change: -36.7% | AC50 [1]: 2.59 µM [falling, partial curve]

CCCCNC(=O)CCCCn1c(=S)[nH]c2c([nH]c3ccc(OC)cc32)c1=O
cell number change: -18.8% | AC50 [2]: 7.31 µM [falling, partial curve]
